# Values quoted from earlier work as cited in article PMC7751758, “Repurposing Sigma-1 Receptor Ligands for COVID-19 Therapy?” (Frontiers in Pharmacology, 2020).
# Like-named read-outs stand apart in the source and are kept apart here.
# How the values were obtained:
# [1] = tested on: HCV infection of human hepatocarcinoma Huh-7 cells; conditions: absence of cytotoxicity at low micromolar and submicromolar concentrations; ref Gastaminza et al., 2010
# [2] = tested on: HCV-induced cytopathic effect on the engineered cell line n4mBid; conditions: leads of the cell protection screen, ref Chockalingam et al., 2010
# EBOV = conditions: guinea pig, in vivo
smiles,measurement,setting,value
CCCCc1oc2ccccc2c1C(=O)c1cc(I)c(OCCN(CC)CC)c(I)c1 [Amiodarone],"reduction in HCV infection of Huh-7 cells, as compared to the vehicle DMSO control",[1],> 85%
same,alleviation of HCV-induced cytopathic effect (n4mBid cell viability relative to untreated cells),[2],inhibit the HCV-induced cytopathic effect
same,alleviation of HCV-induced cytopathic effect (n4mBid cell viability relative to untreated cells),[2]; listed as amiodarone,increase n4mBid cell viability
same,protection from a lethal dose of EBOV,EBOV,failed to protect
same,cellular toxicity,Ebola virus (EBOV),< 30%
